{"sequences": {"note": "Amino acid sequences for entries named in this document (tags omitted).", "UniProt D0VWT7, entry or part of it": "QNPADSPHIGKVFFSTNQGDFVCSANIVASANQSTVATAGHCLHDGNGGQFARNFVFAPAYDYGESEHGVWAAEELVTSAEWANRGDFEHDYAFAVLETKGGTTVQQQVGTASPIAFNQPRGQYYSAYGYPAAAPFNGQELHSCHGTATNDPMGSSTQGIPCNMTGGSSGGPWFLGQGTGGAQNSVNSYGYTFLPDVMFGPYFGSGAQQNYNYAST"}, "source": "patent US20060142171A1", "about": "“Novel alkaline protease” (priority 2003, published 2006)", "molecular_target": "AL protease (Nesterenkonia aethiopica, UniProt D0VWT7)", "test": "Assay with synthetic peptide, pNA, AMC, NNap and ester substrates (kinetic parameters)", "format": "biochemical, Nesterenkonia sp. AL", "conditions": "substrate marked b; Km and kcat not determinable; calculated from velocity measurements at low substrate concentration [S]<<Km", "procedure": "The AL protease activity toward a variety of commercially available synthetic peptide substrates was assayed. The incubation volume was always 1 ml in which 10 μl enzyme solution; 0.76 mg protein/ml was used unless otherwise stated. Initial reaction rates were fitted to the Michaelis-Menten equation, and kinetic parameters, kcat and Km were determined.\nFluorometric assay for Suc-L-Y-AMC, Suc-A-A-F-AMC, Suc-I-I-W-AMC, Suc-A-A-K-AMC, NA-Bz-R-AMC, Suc-L-L-V-Y-AMC, Suc-F-G-L-β-NNap, Suc-L-β-NNap (Sigma) was performed in 50 mM glycine-NaOH buffer, pH 10 at 25° C. The substrate concentration range was from 0.05 to 10 mM except for Suc-L-L-V-Y-AMC (0.1-25 μM). Fluorescence was monitored with a SPEX Fluorolog spectrometer, in a 1×1 cm quartz cuvette placed in a thermostat cuvette holder, using excitation wavelength of 345 nm, emission wavelength 442 nm slit width 5 nm for AMC substrate and excitation wavelength of 340 nm, emission wavelength of 410 and slit width 5 nm for β-NNap substrates. A standard solution of AMC and β-naphthylamine was used to convert the fluorescence values to product concentrations.\nActivity with p-nitroanilide substrates was tested at 25° C. in 50 mM Tris-HCl buffer, pH 9. […]\nIn these cases the kcat/Km was calculated from velocity measurements at low substrate concentration [S]<<Km, where v=(kcat/Km)[E]0 [S].", "note": "The name of at least one read-out is uncertain."}
{"smiles": "CCOC(=O)[C@H](Cc1ccc(O)cc1)NC(=O)c1ccccc1", "note": "[BTEE, N-benzoyl- L-tyrosine ethyl ester]", "values": [{"measurement": "kcat/Km", "value": 62000, "unit": "M⁻¹ s⁻¹"}]}
{"smiles": "N[C@@H](CSCc1ccccc1)C(=O)Nc1ccc([N+](=O)[O-])cc1", "note": "[Benzyl-Cys-4-pNA, S-benzyl-L-cysteine-4-nitroanilide]", "values": [{"measurement": "kcat/Km", "value": 34500, "unit": "M⁻¹ s⁻¹"}]}
